Measured values reported in PubChem BioAssay AID1347426 (Functional Genomics Laboratory (NCATS/FGL), 2020).
Hit rate of the full screen: of about 31,000 sequences, about 1,400 (4.5%) were called active.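 The calls were made as follows: active = median seed-adjusted z-score above 1 or below -1; inactive = the rest.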 The list shows a part of the results.

test: Novel Modifiers of Survival Motor Neuron (SMN) Protein: Gene Identification via Genome-wide siRNA Screen; details: HEK293T SMN2-luciferase reporter, siRNA knockdown, 72 h; actives lie on both sides
Procedure, shortened: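 Each of three siRNAs per gene is reverse-transfected (1 pmol) into reporter HEK293T cells whose luciferase output tracks SMN protein level. After 72 h culture, ONE-Glo luminescence is control-normalized, log10-transformed and MAD-standardized; Common Seed Analysis deprioritizes seed-driven hits.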

| Sequence | median seed-adjusted z-score |
| --- | --- |
| CAACAAGAUUUCUACGUUATT against PKD1 | inactive: -0.228 |
| GUAUAUUUUGGGAAUCUUUTT against CEBPB | inactive: -0.748 |
| CAAGAGUACAAAUUCAAGATT against PRPSAP2 | inactive: 0.329 |
| GUUUCUACCCGGCUACGUATT against DHCR7 | inactive: 0.00451 |
| GUCUCUAUCUACAAUAUCATT against PCDHGA8 | inactive: 0.00691 |
| CCUUGACCUAUGACAUACATT against GRIK3 | inactive: 0.128 |
| GCCUCUCAGAGAACUACGATT against LRRC33 | inactive: -0.194 |
| CGAAUCCUACAUCCACCAATT against PRKCDBP | inactive: 0.244 |
| GCUGAUACCUUCUACCGUATT against GDPD2 | inactive: -0.0868 |
| GUCUAACCGGUCUCAAUAATT against PGAM1 | inactive: -0.234 |
| CAUCAUUACGAUUAGCCUATT against ARFGAP3 | inactive: 0.00412 |
| UCAUCAAGCUUGCAGAGCATT against CTRC | inactive: -0.104 |
| CUCACUUACUCGUACACGATT against IL1R2 | inactive: 0.429 |
| UCAUGGGCAUAUUCUCUAATT against FGD3 | inactive: 0.245 |
| GACAUACAGUGAUUUGUCATT against ZIM2 | inactive: -0.565 |
| CCCUGAACAAGAUCUCCAATT against GPR109B | inactive: 0.321 |
| GGAAGAACUUUAUAACCGATT against NPEPPS | inactive: 0 |
| GCUCACCACCUGUAACAUUTT against SLC18A3 | inactive: -0.392 |
| GGUCUAUUGGGAUAAUGGATT against PGM2 | inactive: 0.355 |
| GCAGAAAAGCUGUCCGAUUTT against ZNF516 | inactive: 0.56 |
| UGAUGACACCAACCACGAATT against CNP | inactive: -0.116 |
| AGGCAGAAUUCACCAGUGATT against SIRPB2 | inactive: 0 |
| GGGCAAAUGUUGUUUACUATT against PON2 | inactive: 0 |

| Sequence | median seed-adjusted z-score |
| --- | --- |
| UCACCACUGUGGAUCUGAATT against CLIC5 | inactive: 0 |
| AGACAGAGGUCGACAUUUATT against MGLL | inactive: 0.288 |
| GCGGAGUUGGGUACAGAGATT against ZNF212 | inactive: 0.863 |
| GGACGUGACCUCAAACUUUTT against CBX8 | inactive: -0.207 |
| CGUACACUCUCUCCAGGCATT against PGLYRP1 | inactive: -0.559 |
| AGUGGACAACAGAACAAUATT against SNRPG | active: -3.09 |
| GGUCUUCCAUAAUAUGUCATT against ZNF83 | inactive: 0.118 |
| CCCUGGAACUAAUCAGACATT against TTC8 | inactive: 0 |
| AGAACUUCAGUGCGCCUUATT against HOXA1 | inactive: 0 |
| GAGUCAAAGUUUGAUGUCATT against UGT2B15 | inactive: 0.421 |
| CCCAAUGCCUGUUUAUUCATT against POLR2J3 | active: -5.42 |
| GGGAGGACCUGAACAAGAATT against TAOK2 | inactive: 0.28 |
| GCGUGGAGUUUAUGCAGAUTT against SCGN | inactive: -0.0164 |
| UGACAUACCAGGAAAGAUATT against LPCAT3 | inactive: -0.388 |
| GUAUCGGGCUAAUCGAGAATT against E2F4 | inactive: -0.395 |
| GAGAGAAUAUACUACAAUUTT against PRKRA | inactive: 0.00259 |
| GCAAUGAGGGCUUCACCUATT against ALDH3B2 | inactive: 0.171 |
| CAGAUAUGAUUGGUGUAAATT against CABP1 | inactive: -0.192 |
| CAUUCGCAUUCAGUCCAUATT against FRAP1 | active: -1.02 |
| AGCCUGUGAUGACUACAGATT against MGP | inactive: -0.0854 |
| GCAUCUCCGUGUACAUGUUTT against P2RY1 | inactive: -0.844 |
| GUGUCUUCGUCAAAUUACATT against ST13 | inactive: 0.286 |
| GCCGAGAAGCGACCAUUCATT against SOX3 | inactive: 0.32 |

A second format for part of the listing above.
Sequence	median seed-adjusted z-score
CAAGAGUACAAAUUCAAGATT against PRPSAP2	inactive: 0.329
GCCUCUCAGAGAACUACGATT against LRRC33	inactive: -0.194
GUCUAACCGGUCUCAAUAATT against PGAM1	inactive: -0.234
UGAUGACACCAACCACGAATT against CNP	inactive: -0.116
AGCCUGUGAUGACUACAGATT against MGP	inactive: -0.0854

The results go on.

| Sequence | median seed-adjusted z-score |
| --- | --- |
| GGCUCAUGUUUACAGCUUUTT against NFKB1 | inactive: 0.31 |
| ACAGAGAUAUUCCCACGGATT against ZNF282 | inactive: 0.274 |
| GAAUCGCCUUCAUCAGUCATT against ARID4B | inactive: 0.211 |
| GAAGCACGGUGACAUCUUUTT against PTGIS | inactive: 0 |
| GAAGGAUGUUGAGAACGAUTT against PPP2R3A | inactive: 0.175 |
| CCGGUCAACUGUUACGUAUTT against GJA5 | inactive: 0.707 |
| CCCUUACCUUAAUCGACGATT against CRB1 | inactive: 0 |
| GGAUGAGUAUAUUGCGGAUTT against RCN1 | inactive: 0.236 |
| GCAAGGCUUUGAGACUAAATT against ADK | inactive: 0.198 |
| GGUUACUGCCAAUACAAUGTT against SF1 | inactive: 0.795 |
| CUCUUACACUUGAUGUACATT against ZBTB2 | inactive: 0.217 |
| GGAUAUAGCCUUUUAACCUTT against KLKB1 | inactive: -0.256 |
| AUCACGACGUGGACCCUGATT against ZSCAN5A | inactive: 0.31 |
| GGCGAGAUCCGGACUCUAATT against DFFA | inactive: -0.494 |
| GCCCAUUCCUGUUUGCUGUTT against AGT | inactive: -0.121 |
| GUACCAGACCGGAUCACUATT against PDE10A | inactive: -0.382 |
| CAAAGUGACCAAGCAGAGATT against SF3A2 | active: -1.7 |
| GCGGAGUCAUGGACAAGGATT against 1-Sep | inactive: 0.0103 |
| CCUUAAUGCUCAUCAGAGATT against ZNF26 | inactive: 0 |
| GACAAAGUCUGUCACCCAATT against ZSCAN22 | inactive: 0.277 |
| GGAUCACACUGGAUGCUCATT against MLLT4 | inactive: -0.0762 |
| GGAAGGCUGCGGAUAAGCUTT against S100A16 | inactive: 0.24 |
| GAACCAGGAGAGAAUAGAATT against PDGFRL | inactive: 0.0203 |
